# According to patent publication US11001838B2, “Platform for screening phosphomevalonate decarboxylase” (The Regents of the University of California, priority 2017, dated 2021):
# Residue numbers refer to the chain shown, from its start. Names may count otherwise. Some entries share one result that the patent states for a list of compounds.
# B1: R74S-I145A: PMDsc double mutant (protein)
# chain: MTVYTASVTAPVNIATLKYWGKRDTKLNLPTNSSISVTLSQDDLRTLTSAATAPEFERDTLWLNGEPHSIDNESTQNCLRDLRQLRKEMESKDASLPTLSQWKLHIVSENNFPTAAGLASSAAGFAALVSAIAKLYQLPQSTSEASRIARKGSGSACRSLFGGYVAWEMGKAEDGHDSMAVQIADSSDWPQMKACVLVVSDIKKDVSSTQGMQLTVATSELFKERIEHVVPKRFEVMRKAIVEKDFATFAKETMMDSNSFHATCLDSFPPIFYMNDTSKRIISWCHTINQFYGETIVAYTFDAGPNAVLYYLAENESKLFAFIYKLFGSVPGWDKKFTTEQLEAFNHQFESSNFTARELDLELQKDVARVILTQVGSGPQETNESLIDAKTGLPKE
# B2: R74S-M212Q: PMDsc double mutant (protein)
# chain: B1 chain with A145I, M212Q
# B3: R74H-M212Q: PMDsc double mutant (protein)
# chain: B1 chain with S74H, A145I, M212Q
# Test system: E. coli DH1
# Experiment: Isopentenol production in E. coli via IPP-bypass MVA pathway (GC-FID)
# Format: cell-based, Escherichia coli
row,Molecule,isopentenol titer relative to wild type
1,B1,up to 2.4 fold
2,B2,up to 2.4 fold
3,B3,up to 2.4 fold
